# Measurements: the supplement of paper PMC10338343
# ± gives the standard deviation. Only a part is listed here, and it is no random draw. Many entries were measured with a wide error.
# Tested on: MILI (PIWIL2) piRISC loaded with L1MC piRNA (26 nt)
# Test: pre-steady-state target cleavage rate (min^-1); MIWI and MILI are mouse PIWI proteins and EfPiwi is from a freshwater sponge; tags in brackets are library labels; higher = faster piRNA-guided slicing of the target
# Conditions: guide: L1MC piRNA 5'p-UAACUAAAUACUAUGCAAGCUGUAGG; auxiliary factor: 500 nM mouse GTSF1
# Description: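 Cleave-'n-Seq: a library of target RNAs (target site embedded in constant flanks, ACAGCATTCCGCGTTAGTGATATCCG... 5' flank; DNA-blocked outside the site) at 0.1 nM was incubated with 1 nM active mouse MILI or MIWI piRISC (synthetic 5'-monophosphorylated piRNA guide) with or without 500 nM mouse GTSF1 at 33 °C for 1 min to 16 h. Uncleaved targets were sequenced and normalised to non-target controls, and the pooled three trials were fitted to a burst-and-steady-state model to give the pre-steady-state cleavage rate (min^-1; k3 is constrained to at most 1e-4). Sequence is the target site only; target names encode pairing extent (gX:gY) and contiguous / 1-mismatch / 2-mismatch / bulge geometry. Fits with R² ≤ 0 are excluded.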
row,Sequence,pre-steady-state target cleavage rate
1,UCCUGCUACAGCUUGCACAGUAUUUAGUUA,0.157 ± 0.015
2,UCCUGGAUGUCCAACCAUAGUAUUUAGUUA,0.00412 ± 0.004
3,UCCUGCUACCAGCUUGCAUAGUAUUUAGUUA,0.24 ± 0.019
4,UCCUGCUACUCCUUGCAUAGUAUUUAGAAA,0.0806 ± 0.019
5,UCCUCCUUGUGCUUGCAUAGUAUUUUCAAA,0.0192 ± 0.0073
6,UCCUCCUACAGCUUGCAUAGUAUGUUAGUUA,0.126 ± 0.022
7,UCCUGGAUGUCCUUGCUAGUAUUUAGUUA,0.00201 ± 0.0052
8,UCCUGGAUGUCGAACGAUAGUUAUUUAGUUA,0.0003 ± 0.023
9,UCCUGCUACAGCAACCAUAGUAUUUAGUAA,0.35 ± 0.063
10,UCCUGGAUGUCGUUGCAUACGUAUUUAGUUA,0.000688 ± 0.015
11,UCCUGCAACAGCUUCCAUAGUAUUUAGUUA,0.112 ± 0.03
12,UCCUGGAUCAGCUUCCAUAGUAAUUAGUUA,0.00494 ± 0.004
13,UCCUGGAUGUCGAACGUUUGAAUUUAGUUA,0.000713 ± 0.0091
14,UCCUGCUACAGCUUGCAUAGUUUUUUGUUA,0.112 ± 0.028
15,UCCUGGAUGUCCUUGCAUAGUAUAUAGAUA,0.0132 ± 0.0063
16,UCCUGGAUGUCGAACGUUGGUAUUUAGUUA,0.000217 ± 0.038
17,UCCUGCUACACCUUGCAUAGUAUUUAGAUA,0.112 ± 0.032

# Same assay, conditions: guide: L1MC piRNA 5'p-UAACUAAAUACUAUGCAAGCUGUAGG; auxiliary factor: none (no GTSF1)
row,Sequence,pre-steady-state target cleavage rate
1,UCCUGCUACAGCUUGCACAGUAUUUAGUUA,0.00803 ± 0.0023
2,UCCUGGAUGUCCAACCAUAGUAUUUAGUUA,0.000975 ± 0.0046
3,UCCUGCUACCAGCUUGCAUAGUAUUUAGUUA,0.0115 ± 0.0033
4,UCCUGCUACUCCUUGCAUAGUAUUUAGAAA,0.000998 ± 0.0051
5,UCCUCCUUGUGCUUGCAUAGUAUUUUCAAA,0.00157 ± 0.0037
6,UCCUCCUACAGCUUGCAUAGUAUGUUAGUUA,0.00205 ± 0.0038
7,UCCUGGAUCAGCUUGCAUACAAUUUUCAAA,0.000161 ± 0.017
8,UCCUGGAUGUCCUUGCUAGUAUUUAGUUA,0.000762 ± 0.0067
9,UCCUGGUACAGCUUGCAUAGUAUUAAGAUA,0.00177 ± 0.0044
10,UCCUGCUACAGCAACCAUAGUAUUUAGUAA,0.00141 ± 0.0048
11,UCCUGGAUGUCGUUGCAUACGUAUUUAGUUA,0.00143 ± 0.0053
12,UCCUGCUUCAGCUUCCAUAGUAUUUAGUUA,0.00123 ± 0.006
13,UCCUGGAACAGCUACGAUAGUAUUUAGUUA,0.00152 ± 0.004
14,UCCUGGAUCAGCUUGCAUAGAAUUUUGUUA,0.00106 ± 0.0043
15,UCCUGCAACAGCUUCCAUAGUAUUUAGUUA,0.00138 ± 0.0053
16,UCCUGGAUCAGCUUCCAUAGUAAUUAGUUA,0.000665 ± 0.0084
17,UCCUGGAUGUCGAACGUUUGAAUUUAGUUA,0.000172 ± 0.024
18,UCCUGCUACAGCUUGCAUAGUUUUUUGUUA,0.00213 ± 0.003
19,UCCUGGAUGUCCUUGCAUAGUAUAUAGAUA,0.00147 ± 0.0049
20,UCCUGGAACAGCUUGCAUUGUAUUUUCAAA,0.000838 ± 0.0058
21,UCCUGGAUGAGCUUCCAUAGUAUUAAGUUA,0.000536 ± 0.0099
22,UCCUGGAUGUCGAACGUUGGUAUUUAGUUA,0.000374 ± 0.013
23,UCCUGCUACACCUUGCAUAGUAUUUAGAUA,0.00163 ± 0.0048
